Holding throughout (assay): log2 fold change, soluble protein after heating vs DMSO (PISA); higher = thermal stabilisation; K562 cells, 10 uM, 30 min; active = over 0.2 and 3.5 SD of the protein, either way, in both replicates (recomputed)
Compound in one assay: C=CC(=O)N1CCC[C@@H](n2nc(-c3ccc(Oc4ccccc4)cc3)c3c(N)ncnc32)C1 [ibrutinib]
In a few lines:
(§1)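 K562 cells at 2×10^6 cells/mL were exposed to 10 μM compound for 30 min, then aliquots were heated for 3 min across 48°C-58°C, pooled, and extracted in PBS containing 0.5% NP-40 at 4°C. The supernatant after 21,000xg for 90 min was taken as soluble protein and measured by TMTpro 16plex LC-MS/MS with channel sums equalised. Thermal stability is reported relative to control samples, with values from duplicates. Fold changes are given on a log2 scale.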

Amino acid sequences for entries named in this document (tags omitted). A change or cut given only in a name is not applied to a line headed by its entry.
UniProt Q9UPQ8: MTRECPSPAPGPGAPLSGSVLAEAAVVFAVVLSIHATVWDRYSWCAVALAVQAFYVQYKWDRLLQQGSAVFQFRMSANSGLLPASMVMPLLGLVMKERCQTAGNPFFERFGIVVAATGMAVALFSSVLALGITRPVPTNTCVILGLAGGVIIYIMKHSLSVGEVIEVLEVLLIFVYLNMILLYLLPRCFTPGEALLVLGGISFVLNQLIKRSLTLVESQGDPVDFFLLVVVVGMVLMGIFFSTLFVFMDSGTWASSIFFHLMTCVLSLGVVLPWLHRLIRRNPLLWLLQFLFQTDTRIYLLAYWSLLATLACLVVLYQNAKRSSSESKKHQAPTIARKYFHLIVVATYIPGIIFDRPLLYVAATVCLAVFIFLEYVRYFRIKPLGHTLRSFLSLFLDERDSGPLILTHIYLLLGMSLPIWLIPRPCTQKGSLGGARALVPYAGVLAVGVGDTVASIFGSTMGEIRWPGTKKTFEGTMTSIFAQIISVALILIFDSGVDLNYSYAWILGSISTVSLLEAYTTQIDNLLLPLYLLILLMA
UniProt Q96N67: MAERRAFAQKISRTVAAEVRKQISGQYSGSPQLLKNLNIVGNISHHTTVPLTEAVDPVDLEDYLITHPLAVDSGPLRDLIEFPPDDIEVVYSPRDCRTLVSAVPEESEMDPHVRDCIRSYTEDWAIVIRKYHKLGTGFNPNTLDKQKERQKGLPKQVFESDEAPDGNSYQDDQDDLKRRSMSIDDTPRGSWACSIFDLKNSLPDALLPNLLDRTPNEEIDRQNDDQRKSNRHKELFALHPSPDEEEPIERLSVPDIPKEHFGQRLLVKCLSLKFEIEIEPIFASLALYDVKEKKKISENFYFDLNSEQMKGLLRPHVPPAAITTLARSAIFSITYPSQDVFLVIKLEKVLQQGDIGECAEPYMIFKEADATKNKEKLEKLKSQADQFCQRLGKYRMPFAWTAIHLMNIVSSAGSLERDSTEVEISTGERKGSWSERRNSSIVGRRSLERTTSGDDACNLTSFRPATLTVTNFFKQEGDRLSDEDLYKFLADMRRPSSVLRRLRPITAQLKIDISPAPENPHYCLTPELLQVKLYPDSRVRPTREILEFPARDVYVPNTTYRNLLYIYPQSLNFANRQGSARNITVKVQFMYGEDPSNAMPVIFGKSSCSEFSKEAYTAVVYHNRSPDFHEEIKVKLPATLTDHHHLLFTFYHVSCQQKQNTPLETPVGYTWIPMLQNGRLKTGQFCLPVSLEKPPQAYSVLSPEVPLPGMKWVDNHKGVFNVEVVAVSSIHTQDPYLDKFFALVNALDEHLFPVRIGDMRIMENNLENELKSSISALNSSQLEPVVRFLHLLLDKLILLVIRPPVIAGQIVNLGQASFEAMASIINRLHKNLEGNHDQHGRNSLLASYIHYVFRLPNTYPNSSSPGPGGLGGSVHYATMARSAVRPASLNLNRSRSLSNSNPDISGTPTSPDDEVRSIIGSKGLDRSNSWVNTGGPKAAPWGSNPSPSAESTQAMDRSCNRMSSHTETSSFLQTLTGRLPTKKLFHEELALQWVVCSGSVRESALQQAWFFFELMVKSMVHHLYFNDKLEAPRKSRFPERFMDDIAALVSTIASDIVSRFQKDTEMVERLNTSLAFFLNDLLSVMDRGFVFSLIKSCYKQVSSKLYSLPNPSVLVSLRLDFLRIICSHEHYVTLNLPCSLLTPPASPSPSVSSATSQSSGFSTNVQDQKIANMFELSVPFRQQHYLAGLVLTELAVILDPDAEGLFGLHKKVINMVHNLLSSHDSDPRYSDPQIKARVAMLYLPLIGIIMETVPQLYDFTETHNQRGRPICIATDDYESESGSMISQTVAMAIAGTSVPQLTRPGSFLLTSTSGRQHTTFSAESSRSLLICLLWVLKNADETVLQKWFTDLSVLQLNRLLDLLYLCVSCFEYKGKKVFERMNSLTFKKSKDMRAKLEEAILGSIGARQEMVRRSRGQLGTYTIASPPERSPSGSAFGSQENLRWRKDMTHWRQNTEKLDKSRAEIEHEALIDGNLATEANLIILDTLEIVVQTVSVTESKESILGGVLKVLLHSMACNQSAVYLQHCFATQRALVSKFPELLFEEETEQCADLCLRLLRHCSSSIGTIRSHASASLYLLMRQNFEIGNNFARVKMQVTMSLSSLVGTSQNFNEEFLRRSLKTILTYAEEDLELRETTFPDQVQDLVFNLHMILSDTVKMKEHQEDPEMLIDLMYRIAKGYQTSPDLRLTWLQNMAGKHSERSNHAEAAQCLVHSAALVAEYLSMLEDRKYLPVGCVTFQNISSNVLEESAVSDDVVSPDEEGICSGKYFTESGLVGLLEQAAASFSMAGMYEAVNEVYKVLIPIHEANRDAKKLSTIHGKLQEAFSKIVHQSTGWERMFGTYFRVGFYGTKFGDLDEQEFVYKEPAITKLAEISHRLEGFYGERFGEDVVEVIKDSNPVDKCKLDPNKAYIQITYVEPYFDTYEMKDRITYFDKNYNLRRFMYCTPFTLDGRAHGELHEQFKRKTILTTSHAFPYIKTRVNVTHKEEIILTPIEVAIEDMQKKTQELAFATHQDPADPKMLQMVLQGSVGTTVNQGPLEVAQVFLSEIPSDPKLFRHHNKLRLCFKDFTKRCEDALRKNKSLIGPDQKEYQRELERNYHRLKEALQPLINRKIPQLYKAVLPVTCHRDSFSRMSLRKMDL
UniProt Q3B7T1: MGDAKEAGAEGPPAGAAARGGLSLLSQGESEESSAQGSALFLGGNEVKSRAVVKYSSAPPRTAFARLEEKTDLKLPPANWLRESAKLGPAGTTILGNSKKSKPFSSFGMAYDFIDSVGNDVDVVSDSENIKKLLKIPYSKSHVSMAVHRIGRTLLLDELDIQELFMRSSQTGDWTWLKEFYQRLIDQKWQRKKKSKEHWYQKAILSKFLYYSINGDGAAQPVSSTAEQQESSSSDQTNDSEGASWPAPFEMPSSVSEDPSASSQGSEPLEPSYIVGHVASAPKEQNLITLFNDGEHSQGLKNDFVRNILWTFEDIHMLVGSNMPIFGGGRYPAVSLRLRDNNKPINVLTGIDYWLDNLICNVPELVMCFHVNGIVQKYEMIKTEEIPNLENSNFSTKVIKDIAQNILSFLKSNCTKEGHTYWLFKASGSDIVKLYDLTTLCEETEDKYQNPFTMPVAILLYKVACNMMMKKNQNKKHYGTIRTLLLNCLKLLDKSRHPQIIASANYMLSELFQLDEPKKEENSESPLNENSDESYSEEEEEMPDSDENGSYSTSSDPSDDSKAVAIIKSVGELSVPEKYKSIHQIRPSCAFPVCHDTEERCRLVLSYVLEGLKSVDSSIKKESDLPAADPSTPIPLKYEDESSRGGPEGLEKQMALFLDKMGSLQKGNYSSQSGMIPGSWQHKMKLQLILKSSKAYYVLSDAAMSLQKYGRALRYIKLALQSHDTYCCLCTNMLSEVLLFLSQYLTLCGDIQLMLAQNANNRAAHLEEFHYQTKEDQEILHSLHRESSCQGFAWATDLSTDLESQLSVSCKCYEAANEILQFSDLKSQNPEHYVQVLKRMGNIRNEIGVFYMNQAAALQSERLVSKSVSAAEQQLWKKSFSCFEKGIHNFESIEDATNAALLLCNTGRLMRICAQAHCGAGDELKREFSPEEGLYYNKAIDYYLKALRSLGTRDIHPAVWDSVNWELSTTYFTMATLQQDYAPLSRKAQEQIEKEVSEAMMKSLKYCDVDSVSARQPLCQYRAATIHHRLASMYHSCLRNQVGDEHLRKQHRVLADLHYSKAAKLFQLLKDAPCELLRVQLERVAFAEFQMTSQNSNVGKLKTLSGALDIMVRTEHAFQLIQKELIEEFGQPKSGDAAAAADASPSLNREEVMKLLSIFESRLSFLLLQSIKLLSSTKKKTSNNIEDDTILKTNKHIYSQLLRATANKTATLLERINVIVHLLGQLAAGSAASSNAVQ
UniProt Q7L591: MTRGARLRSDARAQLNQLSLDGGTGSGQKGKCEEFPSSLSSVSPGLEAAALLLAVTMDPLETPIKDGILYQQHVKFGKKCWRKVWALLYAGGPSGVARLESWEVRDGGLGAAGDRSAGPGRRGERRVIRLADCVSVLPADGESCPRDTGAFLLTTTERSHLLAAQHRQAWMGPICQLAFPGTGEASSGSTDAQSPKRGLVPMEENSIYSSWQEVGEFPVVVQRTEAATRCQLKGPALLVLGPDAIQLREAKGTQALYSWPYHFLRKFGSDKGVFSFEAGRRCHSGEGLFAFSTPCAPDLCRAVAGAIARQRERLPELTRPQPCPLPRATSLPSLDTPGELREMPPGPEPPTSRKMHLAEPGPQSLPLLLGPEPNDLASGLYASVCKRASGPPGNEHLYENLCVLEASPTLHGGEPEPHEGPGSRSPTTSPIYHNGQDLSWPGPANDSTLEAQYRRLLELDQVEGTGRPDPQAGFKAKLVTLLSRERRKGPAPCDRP
UniProt P49184: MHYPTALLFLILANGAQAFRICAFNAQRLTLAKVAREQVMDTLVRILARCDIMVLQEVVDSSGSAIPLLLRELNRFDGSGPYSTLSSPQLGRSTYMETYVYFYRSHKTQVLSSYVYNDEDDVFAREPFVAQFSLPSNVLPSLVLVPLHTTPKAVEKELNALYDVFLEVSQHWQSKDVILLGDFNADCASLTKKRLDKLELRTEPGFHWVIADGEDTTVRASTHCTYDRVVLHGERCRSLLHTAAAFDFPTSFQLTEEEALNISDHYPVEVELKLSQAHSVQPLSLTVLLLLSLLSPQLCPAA
UniProt Q6Y2X3: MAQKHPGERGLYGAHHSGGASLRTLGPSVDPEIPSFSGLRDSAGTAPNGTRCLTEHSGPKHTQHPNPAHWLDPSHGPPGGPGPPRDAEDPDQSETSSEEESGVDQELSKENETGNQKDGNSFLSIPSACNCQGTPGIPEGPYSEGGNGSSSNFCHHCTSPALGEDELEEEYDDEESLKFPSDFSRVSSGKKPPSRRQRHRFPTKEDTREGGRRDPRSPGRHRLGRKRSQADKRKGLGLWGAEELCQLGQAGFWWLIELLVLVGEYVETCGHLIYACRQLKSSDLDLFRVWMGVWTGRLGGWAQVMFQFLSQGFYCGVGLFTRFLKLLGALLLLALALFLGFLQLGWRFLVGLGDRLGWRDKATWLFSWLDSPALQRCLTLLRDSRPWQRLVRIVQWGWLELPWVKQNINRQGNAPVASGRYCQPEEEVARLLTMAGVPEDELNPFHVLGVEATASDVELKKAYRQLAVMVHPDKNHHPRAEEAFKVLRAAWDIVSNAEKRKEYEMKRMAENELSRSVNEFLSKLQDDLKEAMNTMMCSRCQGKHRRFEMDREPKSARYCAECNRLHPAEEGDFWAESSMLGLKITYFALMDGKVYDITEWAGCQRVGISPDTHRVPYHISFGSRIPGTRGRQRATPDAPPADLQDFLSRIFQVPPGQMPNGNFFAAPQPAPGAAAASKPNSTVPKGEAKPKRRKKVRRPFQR
UniProt Q14195, whole entry, looked up: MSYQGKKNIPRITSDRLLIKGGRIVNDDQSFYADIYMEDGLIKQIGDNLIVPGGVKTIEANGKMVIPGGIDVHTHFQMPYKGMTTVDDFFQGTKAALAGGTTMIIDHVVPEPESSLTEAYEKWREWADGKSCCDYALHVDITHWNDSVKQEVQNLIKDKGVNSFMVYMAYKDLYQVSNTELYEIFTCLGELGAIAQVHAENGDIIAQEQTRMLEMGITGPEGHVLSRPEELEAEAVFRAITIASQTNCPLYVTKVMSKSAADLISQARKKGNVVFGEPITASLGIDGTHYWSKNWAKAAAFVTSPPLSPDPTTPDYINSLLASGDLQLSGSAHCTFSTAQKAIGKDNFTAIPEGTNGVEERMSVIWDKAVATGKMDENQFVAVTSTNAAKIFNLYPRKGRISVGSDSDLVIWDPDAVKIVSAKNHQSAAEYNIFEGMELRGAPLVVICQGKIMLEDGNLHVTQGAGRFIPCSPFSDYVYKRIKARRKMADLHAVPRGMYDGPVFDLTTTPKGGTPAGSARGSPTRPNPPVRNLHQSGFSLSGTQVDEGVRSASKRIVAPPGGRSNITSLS
UniProt Q9UBS3: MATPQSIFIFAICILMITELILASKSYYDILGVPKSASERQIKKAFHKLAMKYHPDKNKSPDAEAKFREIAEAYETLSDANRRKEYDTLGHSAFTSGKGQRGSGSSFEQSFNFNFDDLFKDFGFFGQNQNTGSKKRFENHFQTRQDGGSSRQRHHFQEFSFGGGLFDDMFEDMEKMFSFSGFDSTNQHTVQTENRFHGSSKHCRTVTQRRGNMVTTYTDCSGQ
UniProt Q8TCX1: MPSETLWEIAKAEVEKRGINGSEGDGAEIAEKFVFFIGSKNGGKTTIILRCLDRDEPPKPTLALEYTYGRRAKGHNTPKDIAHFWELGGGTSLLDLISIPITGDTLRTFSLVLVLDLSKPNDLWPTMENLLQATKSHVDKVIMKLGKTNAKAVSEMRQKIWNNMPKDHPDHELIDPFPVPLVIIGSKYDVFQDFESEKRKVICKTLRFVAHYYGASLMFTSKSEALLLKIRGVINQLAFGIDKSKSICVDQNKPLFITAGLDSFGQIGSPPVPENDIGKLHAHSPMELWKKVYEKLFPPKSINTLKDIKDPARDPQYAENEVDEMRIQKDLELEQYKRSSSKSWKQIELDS

Compound in assay [1]: CC(=O)c1cnc2ccc(-c3cc(Cl)c(O)c(Cl)c3)nc2c1N[C@H]1CC[C@H](CN(C)C)CC1
The method, boiled down:
as §1

Compound in assay [2]: CC(C)(O)CC(=O)NCCn1ccc2ncnc(Nc3ccc(Oc4cccc(C(F)(F)F)c4)c(Cl)c3)c21
The method, boiled down:
as §1

Compound in assay [3]: CC(C)C1=C2N=C(C=C(N2N=C1)NCC3=CC=CC=C3)NCCCCCCN
The method, boiled down: as §1

Compound in assay [4]: CC1=C(C(CC(=O)N1)C2=CC=C(C=C2)C(F)(F)F)C(=O)NC3=C(C=C4C(=C3)C=NN4)F
In a few lines: as §1

Compound in assay [5]: CC1=C(C=C(C=C1)NC(=O)C2=CC(=CC=C2)C(C)(C)C#N)NC3=CC4=C(C=C3)N=CN(C4=O)C
The method, boiled down:
as §1

Compound in the next assay: CCCCN(Cc1ccc(C(=O)NO)cc1)C(=O)Nc1ccccc1 [Nexturastat A]
In a few lines: as §1

Compound in another assay: CCN(CC)Cc1ccc2cc(COC(=O)Nc3ccc(C(=O)NO)cc3)ccc2c1 [givinostat]
In a few lines: as §1

Compound in a further assay: CCN(CCCOc1ccc2c(Nc3cc(CC(=O)Nc4cccc(F)c4)[nH]n3)ncnc2c1)CCOP(=O)(O)O [barasertib]
In a few lines: as §1

Compound in a further assay: CC(C)(C)Cn1c(N)nc2ccc(-c3[nH]c(C(C)(C)C)nc3-c3ccc(F)cc3)nc21 [ralimetinib]
The method, boiled down:
as §1

Compound in assay [6]: CC(C)C[C@@H](C=O)NC(=O)[C@H](CC(C)C)NC(=O)[C@H](CC(C)C)NC(=O)OCc1ccccc1
In a few lines:
as §1

Compound in assay [7]: CC1=C(C2=C(C=C1)C(=O)C3=CC=CC=C3N2CCCN)C
In a few lines: as §1

Compound in assay [8]: CC1=C(C=C(C=C1)NC(=O)C2=CC(=CC=C2)N(C)C)NC(=O)C3=CC=C(C=C3)O
In a few lines: as §1

Compound in assay [9]: CC1=CC=C(C=C1)SC2=C3C=C(SC3=CN=C2)C(=O)N
The method, boiled down: as §1

Compound in another assay: CCCS(=O)(=O)Nc1ccc(F)c(C(=O)c2c[nH]c3ncc(-c4ccc(Cl)cc4)cc23)c1F [vemurafenib]
The method, boiled down: as §1

Compound in assay [10]: CCCS(=O)(=O)Nc1ccc(F)c(C(=O)c2c[nH]c3ncc(Cl)cc23)c1F
In a few lines:
as §1

Compound in assay [11]: CCCc1cc(C)[nH]c(=O)c1CNC(=O)c1cc(-c2ccnc(N3CCN(C)CC3)c2)cc2c1cnn2C(C)C
In a few lines:
as §1

This is one part of the list. Residues, ends and D or L forms follow the SMILES beside them. *: point of attachment. Cbz = O=C(OCc1ccccc1)*

Our source for the log2 fold change values is the supplement of paper PMC10849652.

As to DOLK (UniProt Q9UPQ8), the log2 fold change in the assay with ibrutinib was inactive: -0.145; in assay [1], inactive: -0.016; in assay [2] it was inactive: -0.358; in assay [3], inactive: -0.371; in assay [4], inactive: -0.023; in assay [5], inactive: 0.099. The log2 fold change with Nexturastat A is inactive: -0.093; with givinostat, inactive: 0.23; with barasertib it was inactive: 0.23.

For DOCK7 (UniProt Q96N67), the log2 fold change in the assay with ibrutinib was inactive: -0.052; in assay [1], inactive: 0.01; with ralimetinib, inactive: -0.02; in assay [2], inactive: -0.015; in [3], inactive: -0.06; in [6], inactive: -0.105. Also, the log2 fold change is inactive: -0.072 in assay [4]; inactive: 0.016 in assay [7]; inactive: -0.037 in [5]; inactive: 0.008 in assay [8]; inactive: 0.011 in [9]; inactive: -0.063 in the assay with Nexturastat A. Further, the log2 fold change with vemurafenib was inactive: 0.03; in [10], inactive: 0.007; in [11], inactive: 0.061; in the assay with givinostat, inactive: 0.017; in the assay with barasertib it was inactive: -0.005.

For E4F1 (UniProt H3BN24), the log2 fold change was inactive: -0.105 in the assay with ralimetinib, inactive: 0.434 in [6] and inactive: -0.286 in assay [8].

On to EDRF1 (UniProt Q3B7T1), for which the log2 fold change with ibrutinib is inactive: 0.068; with ralimetinib, inactive: 0.04; in assay [2], inactive: 0.048; in assay [3], inactive: 0.004; in [6], inactive: 0.066; in [5], inactive: -0.022. Also, the log2 fold change in assay [8] is inactive: 0.21; with Nexturastat A, inactive: -0.042; in assay [11] it was inactive: 0.019; with givinostat, inactive: 0.114; with barasertib, inactive: -0.036.

Consider DNLZ (UniProt Q5SXM8), for which the log2 fold change in the assay with ibrutinib is inactive: 0.065; in [1] it was inactive: 0.068; with ralimetinib, inactive: -0.177; in assay [2], inactive: 0.03; in assay [3] it was inactive: 0.095; in [6], inactive: 0.041. In addition, the log2 fold change was inactive: 0.024 in assay [4]; inactive: -0.073 in [7]; inactive: -0.114 in [5]; inactive: -0.025 in [8]; inactive: -0.098 in assay [9]; inactive: -0.267 in the assay with Nexturastat A. The log2 fold change is inactive: 0.022 with vemurafenib; inactive: -0.056 in [10]; inactive: -0.024 in assay [11]; inactive: -0.014 with givinostat; inactive: -0.08 in the assay with barasertib.

Consider DOK3 (UniProt Q7L591), for which the log2 fold change in the assay with ibrutinib was inactive: -0.001; in [1], inactive: -0.048; in assay [2], inactive: -0.043; in [3], inactive: -0.007; in assay [7], inactive: 0.098; in [5] it was inactive: 0.098. For the same target, the log2 fold change in [9] was inactive: -0.015; in the assay with Nexturastat A, inactive: 0.145; with vemurafenib, inactive: 0.027; in assay [10], inactive: -0.013; in assay [11] it was inactive: -0.076; with givinostat, inactive: 0.093. Also, the log2 fold change in the assay with barasertib is inactive: -0.095.

Turning to DNASE1L1 (UniProt P49184), the log2 fold change in assay [1] is inactive: 0.054; in assay [3], inactive: -0.246; with givinostat it was inactive: 0.03.

With DNAJC14 (UniProt Q6Y2X3), the log2 fold change in assay [11] is inactive: -0.334.

Regarding DPYSL3 isoform 2 (UniProt Q14195), the log2 fold change in assay [3] is inactive: 0; in assay [9], inactive: -0.068; in the assay with vemurafenib, inactive: -0.166; in [10], inactive: -0.035; with givinostat it was inactive: -0.012.

For DOP1A (UniProt Q5JWR5), the log2 fold change in the assay with ibrutinib is inactive: -0.093; in assay [2] it was inactive: -0.054; in assay [3], inactive: 0.092; in the assay with Nexturastat A, active: 0.47; with vemurafenib, inactive: 0.045; in assay [11] it was inactive: -0.166. For the same target, the log2 fold change in the assay with givinostat is inactive: 0.057; with barasertib it was inactive: -0.047.

For the target DNAJB9 (UniProt Q9UBS3), the log2 fold change is inactive: 0.097 in assay [3] and inactive: 0.163 in the assay with givinostat.

DYNC2LI1 isoform 2 (UniProt Q8TCX1): the log2 fold change with ralimetinib is inactive: -0.129; in assay [2], inactive: 0; in [3], inactive: -0.17; in assay [6], inactive: 0.182; in [5], inactive: 0.02; in assay [8] it was inactive: -0.167. For the same target, the log2 fold change was inactive: 0.018 in assay [9]; inactive: -0.148 with Nexturastat A; inactive: 0.019 with vemurafenib; inactive: -0.044 in [10]; inactive: -0.024 in assay [11]; inactive: -0.138 in the assay with givinostat.

Take DNM1 (UniProt Q05193): the log2 fold change in [2] is inactive: 0.367; in [3], inactive: 0.152; in the assay with Nexturastat A it was inactive: 0.127; with vemurafenib, inactive: -0.102; with givinostat, inactive: -0.05.

Regarding DRAP1 (UniProt E9PQX9), the log2 fold change in assay [1] is inactive: 0.018; in assay [3], inactive: 0.171; in assay [7], inactive: 0.137; in assay [9] it was inactive: 0.019; in [10], inactive: 0.037; in assay [11] it was inactive: -0.604. Also, the log2 fold change in the assay with givinostat is inactive: 0.154.
